{"source": "PubChem BioAssay AID493014", "about": "(National Center for Advancing Translational Sciences (NCATS), 2011)", "note": "Among all 340,000 compounds or so, about 170 (0.05%) were called active. This list was built around the results that the source calls inconclusive (neither active nor inactive); the mix of calls is not that of the screen. The call rests on the fitted dose curve; in most records, active means well fitted inhibition curve with a large enough effect in the signal ratio, with a control signal flat (not every such curve was filed as active); inconclusive means small, poorly fitted or top-dose-only effect, or effect the other way, or a change in a side signal; inactive means flat fitted curve, though single readings scatter; the % refers to the signal ratio. Potencies of inconclusive entries are doubtful fits and often do not repeat. Potency means the concentration at half of the fitted maximal effect.", "data": [{"assay": "qHTS Assay to Find Inhibitors of Chronic Active B-Cell Receptor Signaling;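 on activity change, negative = inhibition: plate controls were basal doxycycline-induced cells for no effect and cells given 10 µM MG132 for full effect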", "conditions": "ABC-DLBCL IkBa-CBG/CBR reporter, luminescence ratio (green luciferase fused to IkBa over red control in TMD8 lymphoma cells), 4 h; activity change, negative = inhibition: at 46.1 µM (top of the series)", "outline": "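Concentration-response series (up to 46 uM) were applied to TMD8 dual-reporter cells for 4 h at 37C with doxycycline. Green/red ratio, after filter-overlap correction, defined %Activity; red signal alone was normalised to basal cells and zero luminescence.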", "values": [{"smiles": "Cc1cc(C)c(C)c(S(=O)(=O)N2CCN(C(=S)NCC3CCCO3)CC2)c1C", "note": "(configuration not stated)", "activity change, negative = inhibition": "inconclusive: -6.29%"}, {"smiles": "FC(F)(F)c1ccccc1/C=N/N1CCN(Cc2ccccc2)CC1", "activity change, negative = inhibition": "inactive: -0.546%"}, {"smiles": "CCc1cc(-c2[nH]ncc2-c2nc3ccccc3n2C)c(O)cc1O", "Potency": "inconclusive: 15.8 µM [falling, partial curve]"}, {"smiles": "CCCn1c(Nc2nc3ccccc3n2C)nc2ccccc21", "Potency": "inconclusive: 35.5 µM [cytotoxic, single point]"}, {"smiles": "CCS(=O)(=O)Nc1ccc(-c2nc3cccnc3s2)cc1", "Potency": "inconclusive: 22.4 µM [falling, single point]"}, {"smiles": "Cc1ccc(NC(=O)CSCC(=O)N2c3ccccc3CCc3ccccc32)cc1", "activity change, negative = inhibition": "inconclusive: 8.3%"}, {"smiles": "Cc1ccc(N2CCN(C(=O)NC3CCCCC3)CC2C)cc1", "note": "(configuration not stated)", "activity change, negative = inhibition": "inconclusive: -3.55%"}, {"smiles": "O=S(=O)(c1cccc2cccnc12)N1CCN(c2ccccc2)CC1", "activity change, negative = inhibition": "inconclusive: 16.6%"}, {"smiles": "C=C1N(CCCCCC(=O)O)C(=O)OC12CCCCC2", "activity change, negative = inhibition": "inconclusive: 9.34%"}, {"smiles": "O=c1cc2c(nn1Cc1cccc([N+](=O)[O-])c1)-c1ccccc1CC2", "activity change, negative = inhibition": "inconclusive: -19.1%"}, {"smiles": "CCc1cc(=O)oc2cc(OC(C)=O)cc(OC(C)=O)c12", "activity change, negative = inhibition": "inconclusive: -7.27%"}, {"smiles": "CC(C)(C)c1ccc(-c2noc(CCC(N)=O)n2)cc1", "Potency": "inconclusive: 14.1 µM [falling, partial curve]"}, {"smiles": "Cn1nc(CC(=O)Nc2ccc3c(c2)OCCO3)c2ccccc2c1=O", "activity change, negative = inhibition": "inactive: -23.5%"}, {"smiles": "CCCOc1ccc(N2C(=O)CC(NCc3ccncc3)C2=O)cc1", "note": "(configuration not stated)", "activity change, negative = inhibition": "inconclusive: 5.87%"}, {"smiles": "COc1ccccc1-c1nnc2sc(COc3ccc(F)cc3)nn12", "activity change, negative = inhibition": "inconclusive: -11.8%"}, {"smiles": "CCOC(=O)C1CCN(C(=O)C2c3ccccc3C(=O)N(C)C2c2ccc(OC)cc2)CC1", "note": "(configuration not stated)", "activity change, negative = inhibition": "inconclusive: 8.1%"}, {"smiles": "Cc1c(C(=O)NNC(=S)Nc2ccc(S(N)(=O)=O)cc2)oc2ccccc12", "Potency": "inconclusive: 14.1 µM [falling, partial curve, poor fit]"}, {"smiles": "CCN1CCC(N2CCN(c3ccc(Cl)cc3)CC2)CC1", "activity change, negative = inhibition": "inactive: 2.63%"}, {"smiles": "O=C(Cn1cc(SCc2cccc(Cl)c2)c2ccccc21)N1CCOCC1", "Potency": "inconclusive: 18.4 µM [falling, partial curve]"}, {"smiles": "CC(=O)c1ccc(N2CCN(C(=O)CN(C)S(=O)(=O)c3cnc[nH]3)CC2)cc1", "Potency": "inconclusive: 5.62 µM [falling, single point]"}, {"smiles": "CCN(c1ccccc1)S(=O)(=O)c1ccc(Cl)c(NC(=O)CSc2n[nH]c(N)n2)c1", "Potency": "inconclusive: 2.59 µM [falling, partial curve, poor fit]"}, {"smiles": "O=C(CSC(=S)N1CCOCC1)c1ccccc1", "Potency": "inconclusive: 23.1 µM [falling, partial curve]"}, {"smiles": "O=C(NC(=S)NCCc1ccc(Cl)cc1)c1ccco1", "activity change, negative = inhibition": "inconclusive: 0.709%"}, {"smiles": "COc1ccc(OC)c(CCNC(=O)CCCC(=O)n2ncc3cc(C)ccc32)c1", "activity change, negative = inhibition": "inconclusive: 17.5%"}, {"smiles": "COc1cccc(C2Oc3ccccc3C3CC(c4cccs4)=NN32)c1", "note": "(configuration not stated)", "Potency": "inconclusive: 17.8 µM [falling, single point]"}, {"smiles": "N#CC(c1nc2ccccc2nc1N1CCCC1)S(=O)(=O)c1ccccc1", "note": "(configuration not stated)", "activity change, negative = inhibition": "inconclusive: 5.79%"}, {"smiles": "Cc1cc(C(=O)COC(=O)c2ccc(NC(=O)CC#N)cc2)c(C)n1-c1ccc(OC(F)F)cc1", "activity change, negative = inhibition": "inactive: -14.4%"}, {"smiles": "CCOC(=O)Cc1csc(NC(=O)COc2c(C)cccc2C)n1", "activity change, negative = inhibition": "inconclusive: 4.49%"}, {"smiles": "COc1ccc(N/C=C/C(=O)c2ccc(OC)c(OC)c2)cc1", "activity change, negative = inhibition": "inactive: -14.8%"}, {"smiles": "CC(C)CC(=O)Nc1ccc(C(=O)CN2CCN(c3ccc(O)cc3)CC2)cc1", "activity change, negative = inhibition": "inconclusive: 1.58%"}, {"smiles": "CCOc1ccc(C(=O)CSc2nnc(N)s2)cc1", "activity change, negative = inhibition": "inconclusive: 2.03%"}, {"smiles": "N=C1S/C(=C\\c2cccc3ccccc23)C(=O)N1c1ccc(F)cc1", "activity change, negative = inhibition": "inconclusive: -2.84%"}, {"smiles": "Cc1ccc(C(=O)N2CCCC(C(F)(F)F)C2)cc1S(=O)(=O)N1CCOCC1", "note": "(configuration not stated)", "activity change, negative = inhibition": "inconclusive: 0.785%"}, {"smiles": "O=C(CNC(=O)c1ccccc1Cl)N/N=C/C=C/c1ccccc1", "activity change, negative = inhibition": "inconclusive: 11.9%"}, {"smiles": "COc1ccc(-n2c(C)cc(/C=N/Nc3nc(N4CCOCC4)nc(N4CCOCC4)n3)c2C)cc1", "activity change, negative = inhibition": "inconclusive: -7.12%"}, {"smiles": "CCCNC(=O)c1cccc(COCC(F)(F)C(F)F)c1", "activity change, negative = inhibition": "inconclusive: 3.69%"}, {"smiles": "O=C(CNC(=O)c1cccs1)N/N=C/c1cccc(Cl)c1", "Potency": "inconclusive: 12.6 µM [falling, partial curve]"}, {"smiles": "Cc1ccc(C(=O)CC2(O)C(=O)N(CCc3ccccc3)c3ccc(Br)cc32)o1", "note": "(configuration not stated)", "activity change, negative = inhibition": "inconclusive: -15.2%"}, {"smiles": "COc1ccc(/C=C2/NC(=O)N(Cc3ccccc3F)C2=O)cc1OC", "activity change, negative = inhibition": "inactive: 12.7%"}, {"smiles": "CCC(=O)NC1=C(Cl)C(=O)C(NC(=O)CC)=C(Cl)C1=O", "Potency": "inconclusive: 35.5 µM [rising, single point]"}, {"smiles": "N#Cc1c(N)oc(-c2ccccc2)c1-c1ccccc1", "activity change, negative = inhibition": "inconclusive: 0.592%"}, {"smiles": "Nc1nonc1-c1nc2ccccc2n1Cc1ccc(F)cc1Cl", "activity change, negative = inhibition": "inactive: 4.08%"}, {"smiles": "COc1ccc(NC(=O)c2cccc(N3C(=O)C4CC=C(C)CC4C3=O)c2)c(OC)c1", "note": "(configuration not stated)", "Potency": "inconclusive: 17.8 µM [falling, single point]"}, {"smiles": "CC(C)CC(=O)Nc1ccc(C(=O)COC(=O)C2CCC2)cc1", "activity change, negative = inhibition": "inactive: 2.72%"}, {"smiles": "CCCOc1ccccc1OCC(=O)Nc1ccc(S(=O)(=O)N2CCCCC2)cc1", "activity change, negative = inhibition": "inconclusive: -24.4%"}, {"smiles": "O=[N+]([O-])c1ccc(NCCNS(=O)(=O)c2ccccc2)c(C(F)(F)F)c1", "activity change, negative = inhibition": "inactive: 8.65%"}, {"smiles": "COc1cc(NC(=O)c2ccco2)c(C(=O)OCC(=O)Nc2ncc(Cl)cc2Cl)cc1OC", "activity change, negative = inhibition": "inconclusive: -3.43%"}, {"smiles": "Cc1ccccc1NC(=O)C1c2cccc[n+]2CC(=O)N1c1c(C)cccc1C", "note": "(configuration not stated)", "activity change, negative = inhibition": "inconclusive: -6.43%"}, {"smiles": "CC(=O)c1cnc(N2CCCCC2)nc1C", "activity change, negative = inhibition": "inconclusive: 2%"}, {"smiles": "Cc1ccc2nc(NC(=O)c3ccccn3)sc2c1", "activity change, negative = inhibition": "inconclusive: 158% [cytotoxic]"}, {"smiles": "COc1ccc(CCNc2oc(-c3ccc(OC)c(OC)c3)nc2C#N)cc1", "activity change, negative = inhibition": "inconclusive: -17.7%"}, {"smiles": "CCc1ccc2[nH]c(=O)c(CN(CCCN3CCOCC3)C(=O)Nc3ccc(F)cc3)cc2c1", "activity change, negative = inhibition": "inconclusive: 13.5%"}, {"smiles": "O=C(Nc1cc(Cl)cc(Cl)c1)c1ccc(F)c(S(=O)(=O)N2CCCCCC2)c1", "activity change, negative = inhibition": "inconclusive: 1.57%"}, {"smiles": "CC(=O)Nc1ccc(NC(=O)Nc2cccc3ccccc23)cc1", "Potency": "inconclusive: 2.82 µM [falling, full curve]"}, {"smiles": "CCOC(=O)c1c(C)[nH]c(NC(=O)N2CCOCC2)c1C", "activity change, negative = inhibition": "inconclusive: -0.0647%"}, {"smiles": "CC(=O)Nc1ccc2c(c1)CCC2=O", "activity change, negative = inhibition": "inconclusive: 3.45%"}, {"smiles": "CCOC(=O)c1c(NC(=O)CSc2nnnn2-c2ccccc2)sc2c1CC(C)(C)NC2(C)C", "activity change, negative = inhibition": "inconclusive: -13.1%"}, {"smiles": "O=C(NCCc1ccccc1)c1nc(-c2cccs2)no1", "Potency": "inconclusive: 17.8 µM [falling, partial curve, poor fit]"}, {"smiles": "COc1ccccc1/C=C/C=N/NC(=O)c1cnccn1", "activity change, negative = inhibition": "inconclusive: 341%"}, {"smiles": "CC(C)(C)NS(=O)(=O)c1ccc2[nH]c3c(c2c1)CCCCC3", "activity change, negative = inhibition": "inactive: -5.32%"}, {"smiles": "O=C(CN1C(=O)NC2(CCCC2)C1=O)OCCOc1ccc(Cl)cc1Cl", "activity change, negative = inhibition": "inconclusive: -4%"}, {"smiles": "Cc1nc2c(ccc3nc(NC(=O)Cc4ccccc4)sc32)s1", "Potency": "inconclusive: 18.4 µM [falling, single point]"}, {"smiles": "COc1cccc(C(=O)N2c3ccccc3Sc3ccccc32)c1", "activity change, negative = inhibition": "inconclusive: -2.83%"}, {"smiles": "CCCCN(C)C(=S)Nc1ccsc1C(=O)OC", "activity change, negative = inhibition": "inconclusive: 5.99%"}, {"smiles": "Cc1cccc(OCC(=O)NNC(=O)c2ccc([N+](=O)[O-])cc2)c1", "activity change, negative = inhibition": "inconclusive: -0.25%"}, {"smiles": "CCNc1nc(N)nc(Oc2ccc(OCCOc3ccccc3)nn2)n1", "Potency": "inconclusive: 14.6 µM [falling, partial curve, poor fit]"}, {"smiles": "C=CCNC(=O)/C(C#N)=C/c1c(N2CCCCCC2)nc2ccccn2c1=O", "activity change, negative = inhibition": "inconclusive: 4.18%"}, {"smiles": "C[C@]12c3[nH]c4ccc(Cl)cc4c3CCN1C(=O)[C@@H](CC(=O)NCCc1ccccn1)C[C@@H]2C(=O)N1CCOCC1", "activity change, negative = inhibition": "inconclusive: -10.8%"}, {"smiles": "COc1ccccc1N1CCN(S(=O)(=O)c2ccc(F)c(C(=O)Nc3ccc(C)c(F)c3)c2)CC1", "activity change, negative = inhibition": "inactive: -9.77%"}, {"smiles": "COC(=O)c1ccccc1NC(=O)Nc1cc(C)cc(C)n1", "activity change, negative = inhibition": "inconclusive: 9.87%"}, {"smiles": "S=C(Nc1ccc2c(c1)OCO2)N1CCN(Cc2ccco2)CC1", "activity change, negative = inhibition": "inconclusive: -1.22%"}, {"smiles": "COc1ccc2c(c1)C(=O)N(c1ccccc1C)C(=O)C2(C)C", "Potency": "inconclusive: 35.5 µM [falling, partial curve, poor fit]"}, {"smiles": "Cc1ccc(-c2nc(-c3ccncc3)no2)cc1C", "activity change, negative = inhibition": "inconclusive: 6.66%"}, {"smiles": "Cc1cccn2c(=O)c(C(=O)NC3CCCCC3C)c(O)nc12", "note": "(configuration not stated)", "activity change, negative = inhibition": "inactive: 8.98%"}, {"smiles": "CN(C)CCCn1c(NCc2ccc3c(c2)OCO3)nc2ccccc21", "Potency": "inconclusive: 20.6 µM [falling, single point]"}, {"smiles": "Clc1ccc(Cc2nc(-c3cccnc3)no2)cc1", "activity change, negative = inhibition": "inconclusive: 27.7%"}, {"smiles": "O=C(CCCOc1ccc(Cl)cc1Cl)N/N=C/c1ccc(Cl)cc1", "activity change, negative = inhibition": "inconclusive: 2.92%"}, {"smiles": "CC1=CC(C)(C)Nc2ccc(OC(=O)C(Cc3ccccc3)N3C(=O)c4ccccc4C3=O)cc21", "note": "(configuration not stated)", "activity change, negative = inhibition": "inconclusive: -18.9%"}, {"smiles": "CC(=O)Nc1ccccc1O", "activity change, negative = inhibition": "inconclusive: -7.89%"}, {"smiles": "CS(=O)(=O)N(CC(=O)O)c1cccc(Cl)c1", "activity change, negative = inhibition": "inconclusive: 11.8%"}, {"smiles": "COc1cccc(NC(=S)NC(=O)/C=C/c2ccc(F)cc2)c1", "activity change, negative = inhibition": "inactive: -0.404%"}, {"smiles": "Cc1ccc(OCCC(=O)OCC(=O)NCc2ccccc2)cc1", "Potency": "inconclusive: 16.4 µM [falling, single point]"}]}]}
